Literature values, collected in patent US11746374B2, “Methods and platform for screening and selecting metabolites and their receptors” (BOARD OF REGENTS, THE UNIVERSITY OF TEXAS SYSTEM, priority 2017, dated 2023).
At least one read-out could not be matched to a standard name with certainty.

Tests used:
[1] = biological target: T1, cannabidiolic acid synthase (CBDA synthase) (Cannabis sativa, UniProt A6P6V9); conditions: cited from earlier work
T1 sequence (A6P6V9 29-544): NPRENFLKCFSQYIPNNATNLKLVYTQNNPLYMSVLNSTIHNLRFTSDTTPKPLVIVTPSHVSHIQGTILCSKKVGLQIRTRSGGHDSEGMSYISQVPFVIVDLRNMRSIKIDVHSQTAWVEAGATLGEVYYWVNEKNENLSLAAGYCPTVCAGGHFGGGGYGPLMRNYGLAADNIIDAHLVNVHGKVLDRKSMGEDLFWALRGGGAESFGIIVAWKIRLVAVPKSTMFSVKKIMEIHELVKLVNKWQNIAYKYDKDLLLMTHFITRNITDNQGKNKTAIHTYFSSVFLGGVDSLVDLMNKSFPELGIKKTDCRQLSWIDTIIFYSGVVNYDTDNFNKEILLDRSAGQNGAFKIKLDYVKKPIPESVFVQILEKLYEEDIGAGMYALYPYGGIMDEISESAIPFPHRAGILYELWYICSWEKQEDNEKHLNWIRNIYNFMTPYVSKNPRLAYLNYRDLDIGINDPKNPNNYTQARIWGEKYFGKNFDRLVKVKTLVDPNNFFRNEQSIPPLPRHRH

[2] = biological target: T2, Tetrahydrocannabinolic acid synthase (THCA synthase) WT (Cannabis sativa, UniProt Q8GTB6); conditions: cited from earlier work
T2 sequence (Q8GTB6 29-545): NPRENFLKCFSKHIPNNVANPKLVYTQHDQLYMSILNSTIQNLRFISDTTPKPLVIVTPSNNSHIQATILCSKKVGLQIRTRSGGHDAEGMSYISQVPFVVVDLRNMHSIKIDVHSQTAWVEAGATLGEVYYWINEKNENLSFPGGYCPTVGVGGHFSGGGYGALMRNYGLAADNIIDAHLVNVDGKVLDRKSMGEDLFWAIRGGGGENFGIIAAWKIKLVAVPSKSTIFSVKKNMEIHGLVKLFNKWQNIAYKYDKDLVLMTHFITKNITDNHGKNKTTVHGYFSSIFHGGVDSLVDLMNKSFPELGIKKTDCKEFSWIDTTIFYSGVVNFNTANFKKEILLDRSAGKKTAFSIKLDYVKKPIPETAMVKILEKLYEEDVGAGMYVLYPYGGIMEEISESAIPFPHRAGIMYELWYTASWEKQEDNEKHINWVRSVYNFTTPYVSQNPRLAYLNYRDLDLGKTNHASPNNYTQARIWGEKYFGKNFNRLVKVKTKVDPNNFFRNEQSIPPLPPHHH

For `CCCCCc1cc(O)c(C/C=C(\C)CCC=C(C)C)c(O)c1C(=O)O` [CBGA, Cannabigerolic acid], which kcat/Km [1] is on record?
Its kcat/Km is 1386s-1M-1.

What about the kcat/Km [2] of the same compound?
Its kcat/Km is 556s-1M-1.
